## Percent effect of library compounds

Chains of the proteins cited; added tags and fusions are not shown. Residues count along the entry.
UniProt Q8IDJ8, 1-583: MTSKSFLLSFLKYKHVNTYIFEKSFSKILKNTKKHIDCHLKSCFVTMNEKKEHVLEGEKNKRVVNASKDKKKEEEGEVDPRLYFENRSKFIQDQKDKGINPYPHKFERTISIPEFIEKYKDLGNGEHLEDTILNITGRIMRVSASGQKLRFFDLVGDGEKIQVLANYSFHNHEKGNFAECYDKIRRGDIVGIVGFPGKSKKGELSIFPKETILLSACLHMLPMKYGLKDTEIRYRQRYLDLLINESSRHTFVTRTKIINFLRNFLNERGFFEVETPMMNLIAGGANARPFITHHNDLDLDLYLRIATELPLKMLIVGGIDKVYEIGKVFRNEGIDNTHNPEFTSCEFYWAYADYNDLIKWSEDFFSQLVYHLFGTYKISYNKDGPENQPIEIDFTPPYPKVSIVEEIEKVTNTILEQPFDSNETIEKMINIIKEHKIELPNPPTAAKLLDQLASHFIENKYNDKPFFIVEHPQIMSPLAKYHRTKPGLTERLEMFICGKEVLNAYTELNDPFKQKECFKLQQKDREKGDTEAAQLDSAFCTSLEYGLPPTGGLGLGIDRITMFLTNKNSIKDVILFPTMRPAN

Measurements from “University of Dundee, Small-Polar-MMV Screening Library” (2021), ChEMBL document CHEMBL3988442.

The filed quantity is “Percent Effect” (%).
The controls that fix the scale are not given in the record; negative values are as filed.
This is an unselected part of the compounds tested.

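Enzyme assay of the cytosolic lysyl-tRNA synthetase in 384-well plates, read by luminescence. Target: Lysine-tRNA ligase, Plasmodium falciparum 3D7 (UniProt Q8IDJ8). Compounds at 30 µM. Higher reads as stronger inhibition, judged from the few compounds that gave an IC50. About 69,000 compounds were tested under these conditions; 0.071% (about 49) showed 50% or more at least once.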

Result for COc1cccc2c1OCC(Cc1cc(C(N)=O)ccn1)C2 (stereo not drawn) was -1.365%.
Result for O=C(NCc1ccccc1)NCC(O)c1cccc(F)c1 (stereo not drawn) was -0.8403%.
Result for Cc1noc(C)c1C(=O)NCC(c1cccc(F)c1)N(C)C (stereo not drawn) was -1.341%.
Result for Cc1nc(C)c(CC(=O)Nc2nc(C)c(C)s2)c(=O)[nH]1 was 0.1734%.
Result for Cc1ccnc(NCCNC(=O)CCNC(=O)c2ccccc2F)c1 was 4.651%.
Result for CNc1cncc(C2CCCN2Cc2ccn(C)n2)n1 (stereo not drawn) was 4.812%.
Result for COCCNC(=O)[C@@H]1CN(c2ncccn2)C[C@H]2OCC[C@H]21 was -0.7895%.
Result for CCn1ccnc1CN1CCCC1Cn1cc(C)cn1 (stereo not drawn) was -0.2814%.
Result for CCCc1nc(N2CCSCC2)c2c(n1)c(C)nn2CC was -1.829%.
Result for CC(=O)N1CCN(C(=O)CN(C)c2ccc(Cl)cn2)CC1 was 0.462%.
Result for CCn1c(CN(C)C)nnc1C1CCN(Cc2ccc(Cl)c(F)c2)CC1 was 4.106%.
Result for Cc1nccn1CCC1CCCCN1Cc1ccncc1 (stereo not drawn) was -3.693%.
Result for CCN(CC)c1nc(C)cc(C(=O)Nc2cccc(C(N)=O)c2)n1 was -6.018%.
Result for CCc1nc(CNc2ccc(F)c(F)c2)no1 was 4.775%.
Result for Cc1ccc(S(=O)(=O)N[C@H](CO)C(C)C)cc1N(C)C was 0.9794%.
Result for CCC(CC)C(=O)N1CCc2nc(N3CCCC3)nc(C)c2CC1 was -5.17%.
Result for COCCN1CCC2(COCCN(C(=O)Cc3cccs3)C2)C1 (stereo not drawn) was 5.04%.
Result for CC(=O)c1c(F)cccc1NCC(O)C(C)(C)C (stereo not drawn) was 5.9%.
Result for N#Cc1ccc(OCCOc2ccccc2C(=O)N2CCOCC2)cc1 was 3.239%.
Result for CCN1CCC2(CC1)OCCN2C(=O)c1cc(Cl)c(OC)c(Cl)c1 was -2.62%.
Result for CCc1noc(CN(CC)C(=O)CC2C(=O)NCCN2CC=C(C)C)n1 (stereo not drawn) was 1.472%.
Result for Cc1cc(C)n(CC2CN(CC(=O)N3CCC3)CCO2)n1 (stereo not drawn) was 1.071%.
Result for COCc1ncc(CN2CC[C@@](O)(COC)C(C)(C)C2)cn1 was 1.189%.
Result for O=C1N(c2cncnc2)CCC12CCCN(Cc1ccccn1)C2 (stereo not drawn) was -2.057%.
Result for COc1cccc(CNc2nnc(C(C)(C)C)o2)c1OC was -5.835%.
Result for CC(C)c1n[nH]c(C2CN(C(=O)c3csnn3)CCO2)n1 (stereo not drawn) was -0.766%.
Result for CC(O)CN1CCN(Cc2csc(-c3ncccn3)n2)CC1 (stereo not drawn) was 9.135%.
Result for O=C(NC1CC1)[C@H]1[C@@H]2CN(Cc3ccc(-c4ccn[nH]4)s3)C[C@@H]21 was -1.57%.
Result for Cc1ccc(CN2CC[C@H]3CO[C@H](CN(C)C)[C@H]3C2)o1 was 6.374%.
Result for CCOc1cncc(N2CCCC2c2nnc3n2CCCCC3)n1 (stereo not drawn) was 1.951%.
Result for O=S(=O)(NCCSc1nccn1C1CC1)c1ccccc1 was 4.928%.
Result for Cc1cnn(CC2CCCN2CCCS(C)(=O)=O)c1 (stereo not drawn) was -0.9993%.
Result for Cc1nnsc1CNC(=O)c1ccc2c(c1)nc(N1CCOCC1)n2C was 6.759%.
Result for FC(F)(F)CN1CCC(CNc2nc3ccccc3o2)C1 (stereo not drawn) was -0.4078%.
Result for Clc1ccc(C2(CNC3=NCCN3)CCCC2)cc1 was 5.123%.
Result for CC(C)c1ccc(-c2nnn(CCNS(C)(=O)=O)n2)cc1 was 0.1258%.
Result for CC(C)C(Sc1nnnn1C1CC1)C(=O)NCc1cccnc1 (stereo not drawn) was 5.878%.

Repeated from the top, 4 entries:

{"compound": "COc1cccc2c1OCC(Cc1cc(C(N)=O)ccn1)C2", "stereo": "stereo not drawn", "effect": -1.365}
{"compound": "O=C(NCc1ccccc1)NCC(O)c1cccc(F)c1", "stereo": "stereo not drawn", "effect": -0.8403}
{"compound": "Cc1noc(C)c1C(=O)NCC(c1cccc(F)c1)N(C)C", "stereo": "stereo not drawn", "effect": -1.341}
{"compound": "Cc1nc(C)c(CC(=O)Nc2nc(C)c(C)s2)c(=O)[nH]1", "effect": 0.1734}